# Results are given in words; binding and its absence hold for the method and conditions named. In cells and extracts the contact can be indirect. Tags and fused reporters may be left off the sequences shown.
# Chains of the proteins cited; added tags and fusions are not shown.
# UniProt Q4AC94: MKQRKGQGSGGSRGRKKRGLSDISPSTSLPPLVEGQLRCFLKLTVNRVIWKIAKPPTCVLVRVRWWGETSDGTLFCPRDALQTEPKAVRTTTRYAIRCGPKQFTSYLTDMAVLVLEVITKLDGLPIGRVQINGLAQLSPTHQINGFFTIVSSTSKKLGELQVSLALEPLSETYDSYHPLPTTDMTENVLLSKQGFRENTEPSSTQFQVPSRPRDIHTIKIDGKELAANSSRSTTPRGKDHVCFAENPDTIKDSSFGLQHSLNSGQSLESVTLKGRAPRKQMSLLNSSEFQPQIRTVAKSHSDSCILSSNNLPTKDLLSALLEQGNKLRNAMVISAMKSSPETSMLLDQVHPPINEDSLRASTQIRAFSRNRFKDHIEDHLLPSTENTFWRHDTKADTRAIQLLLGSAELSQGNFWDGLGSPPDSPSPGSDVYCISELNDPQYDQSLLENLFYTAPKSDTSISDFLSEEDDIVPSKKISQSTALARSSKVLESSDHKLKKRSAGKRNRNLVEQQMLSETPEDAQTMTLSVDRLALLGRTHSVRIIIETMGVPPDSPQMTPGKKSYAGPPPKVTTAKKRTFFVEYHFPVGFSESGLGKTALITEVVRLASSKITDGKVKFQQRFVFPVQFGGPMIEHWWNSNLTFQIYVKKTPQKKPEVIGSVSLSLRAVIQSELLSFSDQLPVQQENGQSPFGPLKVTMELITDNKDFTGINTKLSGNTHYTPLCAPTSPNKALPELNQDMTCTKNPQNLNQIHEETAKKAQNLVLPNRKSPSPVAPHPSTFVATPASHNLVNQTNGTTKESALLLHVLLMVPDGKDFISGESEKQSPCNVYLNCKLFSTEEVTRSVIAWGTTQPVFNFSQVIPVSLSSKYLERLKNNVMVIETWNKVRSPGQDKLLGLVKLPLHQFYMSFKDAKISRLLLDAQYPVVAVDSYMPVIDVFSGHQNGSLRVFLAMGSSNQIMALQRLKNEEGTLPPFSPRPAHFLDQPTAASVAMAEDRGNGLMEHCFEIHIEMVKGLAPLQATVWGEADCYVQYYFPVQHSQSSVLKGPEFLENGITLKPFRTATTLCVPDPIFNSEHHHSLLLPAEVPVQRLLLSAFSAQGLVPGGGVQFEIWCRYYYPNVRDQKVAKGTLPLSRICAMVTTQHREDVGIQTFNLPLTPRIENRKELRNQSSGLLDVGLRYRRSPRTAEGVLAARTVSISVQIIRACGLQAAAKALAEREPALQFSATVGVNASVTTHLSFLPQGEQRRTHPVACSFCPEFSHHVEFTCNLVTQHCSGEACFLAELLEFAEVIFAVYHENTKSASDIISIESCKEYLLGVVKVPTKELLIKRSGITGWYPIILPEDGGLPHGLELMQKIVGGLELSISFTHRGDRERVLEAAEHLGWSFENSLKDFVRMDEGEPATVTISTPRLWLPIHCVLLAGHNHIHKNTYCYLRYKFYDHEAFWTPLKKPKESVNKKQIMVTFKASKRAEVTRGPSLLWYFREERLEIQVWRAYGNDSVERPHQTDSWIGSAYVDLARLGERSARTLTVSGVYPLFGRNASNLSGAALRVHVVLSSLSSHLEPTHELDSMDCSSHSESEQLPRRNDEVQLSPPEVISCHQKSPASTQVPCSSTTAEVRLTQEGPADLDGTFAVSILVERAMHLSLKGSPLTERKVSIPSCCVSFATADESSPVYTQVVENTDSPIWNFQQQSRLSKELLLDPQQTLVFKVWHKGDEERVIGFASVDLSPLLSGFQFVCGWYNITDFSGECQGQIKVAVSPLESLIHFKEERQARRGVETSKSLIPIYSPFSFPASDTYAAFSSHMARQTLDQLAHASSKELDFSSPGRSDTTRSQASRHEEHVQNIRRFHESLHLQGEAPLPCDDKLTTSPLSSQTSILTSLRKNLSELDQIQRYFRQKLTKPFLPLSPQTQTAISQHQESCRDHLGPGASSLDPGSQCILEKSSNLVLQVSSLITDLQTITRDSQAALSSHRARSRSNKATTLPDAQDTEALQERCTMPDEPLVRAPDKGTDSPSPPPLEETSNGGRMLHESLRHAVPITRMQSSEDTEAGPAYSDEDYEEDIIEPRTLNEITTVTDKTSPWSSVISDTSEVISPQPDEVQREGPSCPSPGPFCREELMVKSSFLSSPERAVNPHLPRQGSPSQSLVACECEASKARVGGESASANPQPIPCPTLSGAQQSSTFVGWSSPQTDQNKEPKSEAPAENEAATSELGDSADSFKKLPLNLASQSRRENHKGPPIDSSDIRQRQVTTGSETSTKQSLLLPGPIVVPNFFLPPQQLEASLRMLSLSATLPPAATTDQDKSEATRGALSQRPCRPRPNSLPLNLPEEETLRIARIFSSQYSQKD
# Molecular target: T1, LRRCC1 with GFP inserted after aa 402 (human) (UniProt Q9C099)
# T1 sequence: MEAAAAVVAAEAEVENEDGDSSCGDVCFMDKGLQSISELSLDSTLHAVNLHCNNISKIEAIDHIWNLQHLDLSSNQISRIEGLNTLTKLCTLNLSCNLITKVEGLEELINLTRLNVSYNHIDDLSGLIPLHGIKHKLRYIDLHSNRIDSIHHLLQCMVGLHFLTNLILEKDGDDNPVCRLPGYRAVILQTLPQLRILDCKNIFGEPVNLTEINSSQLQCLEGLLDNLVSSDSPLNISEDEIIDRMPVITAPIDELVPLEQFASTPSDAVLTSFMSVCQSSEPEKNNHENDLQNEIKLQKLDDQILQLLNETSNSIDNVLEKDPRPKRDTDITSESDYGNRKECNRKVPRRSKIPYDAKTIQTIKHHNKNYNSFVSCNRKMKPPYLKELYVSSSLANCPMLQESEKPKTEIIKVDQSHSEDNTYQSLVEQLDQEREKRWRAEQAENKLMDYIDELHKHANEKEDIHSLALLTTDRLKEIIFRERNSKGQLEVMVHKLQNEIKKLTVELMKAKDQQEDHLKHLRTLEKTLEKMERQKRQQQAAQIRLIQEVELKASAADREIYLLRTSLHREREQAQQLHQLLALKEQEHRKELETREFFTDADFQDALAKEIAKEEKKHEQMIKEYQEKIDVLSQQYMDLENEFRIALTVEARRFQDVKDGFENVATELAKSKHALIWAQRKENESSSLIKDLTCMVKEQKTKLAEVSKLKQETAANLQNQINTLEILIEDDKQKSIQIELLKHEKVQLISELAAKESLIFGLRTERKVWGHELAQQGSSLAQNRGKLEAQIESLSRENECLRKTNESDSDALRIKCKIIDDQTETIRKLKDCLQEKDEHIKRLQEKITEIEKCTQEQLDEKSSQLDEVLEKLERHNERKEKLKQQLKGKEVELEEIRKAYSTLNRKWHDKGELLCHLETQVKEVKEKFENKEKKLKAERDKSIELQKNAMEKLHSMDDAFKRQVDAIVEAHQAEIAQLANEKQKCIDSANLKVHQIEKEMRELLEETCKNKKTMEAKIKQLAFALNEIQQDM
# Test: co-IP; lysate of doxycycline-induced HEK 293 (Flp-In-293) cells expressing LRRCC1 with GFP after aa 402; lysis buffer 50 mM Tris pH 8, 150 mM NaCl, 1% NP-40, 0.5% sodium deoxycholate, 0.1% SDS; anti-GFP (control: anti-HA) on Dynabeads, 3 hr at 4°C; Western blot with anti-GFP or anti-C2CD3
substance,measurement,value
C2CD3 (C2 domain containing 3) (from UniProt Q4AC94 1-2353),binding,no binding

# Reference: article PMC8983040
